Patent US5637476

Tests used:
[1] = target: T1, SfiI restriction endonuclease (Streptomyces fimbriatus) (UniProt O52512); test: enzyme reaction in vitro; conditions: purified native protein
T1 sequence (looked up, limits assumed): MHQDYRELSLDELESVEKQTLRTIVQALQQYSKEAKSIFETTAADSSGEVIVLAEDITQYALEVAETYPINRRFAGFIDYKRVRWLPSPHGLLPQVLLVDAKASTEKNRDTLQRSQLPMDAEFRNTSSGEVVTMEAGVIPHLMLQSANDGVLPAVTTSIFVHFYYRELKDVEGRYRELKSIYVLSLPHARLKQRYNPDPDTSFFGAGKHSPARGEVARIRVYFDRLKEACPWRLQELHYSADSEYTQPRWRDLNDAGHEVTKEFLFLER

[2] = target: T2, SfiI modification methylase (M.SfiI) (Streptomyces fimbriatus) (UniProt O52513); test: inhibition of the protein; conditions: methylation protects from SfiI cleavage; 50 mM Tris pH 7.5, 10 mM EDTA, 5 mM BME, 0.1 mM AdoMet, 37 C; protein in an extract
T2 sequence (looked up, limits assumed): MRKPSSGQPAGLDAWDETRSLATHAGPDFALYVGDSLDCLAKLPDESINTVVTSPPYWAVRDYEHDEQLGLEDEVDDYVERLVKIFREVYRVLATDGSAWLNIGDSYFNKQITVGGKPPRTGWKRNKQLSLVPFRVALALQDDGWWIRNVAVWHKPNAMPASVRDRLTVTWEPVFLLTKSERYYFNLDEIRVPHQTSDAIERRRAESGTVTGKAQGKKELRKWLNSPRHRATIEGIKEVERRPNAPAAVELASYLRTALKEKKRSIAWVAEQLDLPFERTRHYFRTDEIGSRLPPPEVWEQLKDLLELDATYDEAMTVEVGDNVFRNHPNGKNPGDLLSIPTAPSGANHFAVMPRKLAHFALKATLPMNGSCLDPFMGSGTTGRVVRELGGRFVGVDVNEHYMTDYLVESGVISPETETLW

Sequence: GGCCGCAGCGGCC (double strand)
- activity on this sequence ([1]; SfiI methylase modified, nine plasmids carrying methylase gene resistant to SfiI, vector sites intact and cleavable after insert deletion, variant of SfiI linker sites in plasmid pEV328-8-6): not active

Sequence: GGCCGCAGCGGCC (double strand) [SfiI linker sites in plasmid pEV328-8-6]
- activity on this sequence ([1]; SfiI digestion of library reduced transformants about 10^3 fold, 10 mM MgCl2, 50 C): active
- activity on this sequence [2]: active

For part of these data: Negatives hold for the conditions tested. Protein sequences can lack the tags named with them.
